PubChem BioAssay AID504793, Drosophila RNAi Screening Center, 2011
The screen tested about 23,000 reagents; shown is an unselected part of those that have a named target and a result. In the full data, 62 (0.27%) got an active call. 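Calls come from follow-up tests whose scores are not deposited, so confirmed genes may have low counts here; counts are not normalised per plate.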 Raw values are not corrected between plates. Reagents against one gene are numbered here. No sequences are given here.

Screen: 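Knock-downs allowing continued mitosis even though DNA is damaged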 (primary screen)
Cells: Drosophila S2R+ cells
Reagents: long dsRNA against Drosophila genes, about 0.25 µg dsRNA per well
Timing: 4 days of dsRNA, then 4 hours of drug before read-out
Conditions: doxorubicin 0.5 µM for 4 hours to cause double-strand breaks, in cells also given a low, harmless dose of dsRNA against nbs to sensitise the assay
Detection: 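Per-well count of mitotic cells stained for phospho-histone H3 after doxorubicin exposure, used as mitotic index; counts are raw and not normalised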
Scale: mitotic cells: higher = more cells in mitosis, weaker G2 arrest
Active means: 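a call needs confirmation in secondary tests, with other dsRNAs and a check of mitotic timing without damage, not just a high primary count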
Meaning of the calls: active = confirmed in follow-up tests; inactive = not confirmed

CG13492 (GeneID 37487) — mitotic cells, replicate 1 = 4; Outcome = inactive
CG43861 (GeneID 35284) — mitotic cells, replicate 1 = 8; Outcome = inactive
Unc-76 (GeneID 31179) #1 — mitotic cells, replicate 1 = 10; Outcome = inactive
Unc-76 (GeneID 31179) #2 — mitotic cells, replicate 1 = 12; Outcome = inactive
CNT2 (GeneID 35914) — mitotic cells, replicate 1 = 8; Outcome = inactive
SC35 (GeneID 53444) #1 — mitotic cells, replicate 1 = 8; Outcome = inactive
SC35 (GeneID 53444) #2 — mitotic cells, replicate 1 = 6; Outcome = inactive
SC35 (GeneID 53444) #3 — mitotic cells, replicate 1 = 5; Outcome = inactive
metro (GeneID 36176) #1 — mitotic cells, replicate 1 = 6; Outcome = inactive
metro (GeneID 36176) #2 — mitotic cells, replicate 1 = 3; Outcome = inactive
metro (GeneID 36176) #3 — mitotic cells, replicate 1 = 7; Outcome = inactive

Continued (3 carried over from the part before).
metro (GeneID 36176) #1 — mitotic cells, replicate 1 = 6; Outcome = inactive
metro (GeneID 36176) #2 — mitotic cells, replicate 1 = 3; Outcome = inactive
metro (GeneID 36176) #3 — mitotic cells, replicate 1 = 7; Outcome = inactive
Orp8 (GeneID 42412) #1 — mitotic cells, replicate 1 = 13; Outcome = inactive
Orp8 (GeneID 42412) #2 — mitotic cells, replicate 1 = 5; Outcome = inactive
Orp8 (GeneID 42412) #3 — mitotic cells, replicate 1 = 5; Outcome = inactive
CG42286 (retired record) (GeneID 41002) — mitotic cells, replicate 1 = 8; Outcome = inactive
CG7519 (GeneID 40377) — mitotic cells, replicate 1 = 9; Outcome = inactive
CG31126 (GeneID 326121) — mitotic cells, replicate 1 = 17; Outcome = inactive
CG1105 (GeneID 40841) #1 — mitotic cells, replicate 1 = 3; Outcome = inactive
CG1105 (GeneID 40841) #2 — mitotic cells, replicate 1 = 2; Outcome = inactive
Ak6 (GeneID 36379) — mitotic cells, replicate 1 = 5; Outcome = inactive
Sec61alpha (GeneID 33905) — mitotic cells, replicate 1 = 9; Outcome = inactive
CG4968 (GeneID 34384) #1 — mitotic cells, replicate 1 = 9; Outcome = inactive
CG4968 (GeneID 34384) #2 — mitotic cells, replicate 1 = 13; Outcome = inactive
